Data reported in publication PMC7392002.
These are yes or no findings as the source states them, for the method shown. In cells and extracts the contact can be indirect. Some results given as binding are weak or reduced against the parent protein; the word gives no strength. Where a sequence is shown, tags or fusion partners need not be part of it.

Amino acid sequences for entries named in this document (tags omitted).
UniProt Q86TM6: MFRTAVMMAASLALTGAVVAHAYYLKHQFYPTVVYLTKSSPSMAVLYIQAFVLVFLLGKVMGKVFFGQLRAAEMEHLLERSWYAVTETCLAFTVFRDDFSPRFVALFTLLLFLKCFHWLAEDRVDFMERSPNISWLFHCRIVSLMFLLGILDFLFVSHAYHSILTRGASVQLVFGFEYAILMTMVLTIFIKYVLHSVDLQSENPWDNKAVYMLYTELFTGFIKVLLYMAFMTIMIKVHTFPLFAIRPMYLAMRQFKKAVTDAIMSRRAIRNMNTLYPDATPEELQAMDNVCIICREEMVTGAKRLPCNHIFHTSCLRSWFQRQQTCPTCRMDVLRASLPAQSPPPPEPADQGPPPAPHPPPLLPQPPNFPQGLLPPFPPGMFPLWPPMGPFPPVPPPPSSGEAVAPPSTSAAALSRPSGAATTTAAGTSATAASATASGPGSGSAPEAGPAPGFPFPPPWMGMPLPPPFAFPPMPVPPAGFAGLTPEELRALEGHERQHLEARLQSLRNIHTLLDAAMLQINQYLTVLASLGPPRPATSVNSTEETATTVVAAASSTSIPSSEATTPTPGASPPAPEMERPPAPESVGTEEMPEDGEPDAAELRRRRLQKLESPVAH

Target: T1, Flag-tagged heat shock protein A12A (HSPA12A) (UniProt O43301)
T1 sequence: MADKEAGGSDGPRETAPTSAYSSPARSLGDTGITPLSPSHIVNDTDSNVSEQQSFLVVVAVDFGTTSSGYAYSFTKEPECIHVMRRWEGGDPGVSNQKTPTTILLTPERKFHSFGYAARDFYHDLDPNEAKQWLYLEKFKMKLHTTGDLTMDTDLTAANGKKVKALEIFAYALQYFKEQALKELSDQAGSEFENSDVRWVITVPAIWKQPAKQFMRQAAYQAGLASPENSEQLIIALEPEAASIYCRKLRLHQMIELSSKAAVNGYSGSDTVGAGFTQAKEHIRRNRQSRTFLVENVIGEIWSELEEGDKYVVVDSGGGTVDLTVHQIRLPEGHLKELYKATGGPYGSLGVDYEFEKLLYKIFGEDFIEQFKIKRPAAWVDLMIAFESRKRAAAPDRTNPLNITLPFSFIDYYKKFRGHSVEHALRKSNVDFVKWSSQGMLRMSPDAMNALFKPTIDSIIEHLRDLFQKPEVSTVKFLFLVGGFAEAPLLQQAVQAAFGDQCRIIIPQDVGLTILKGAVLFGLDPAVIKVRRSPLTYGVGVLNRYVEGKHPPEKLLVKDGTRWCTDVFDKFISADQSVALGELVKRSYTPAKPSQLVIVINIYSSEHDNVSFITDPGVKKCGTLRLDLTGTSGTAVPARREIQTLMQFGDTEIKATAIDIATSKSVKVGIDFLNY
Assay: co-IP; Caki-1 or 786O cells overexpressing Flag-tagged HSPA12A for 48 h; 0.7 mg protein precipitated with anti-Flag antibodies; blots with anti-CD147, anti-HRD1 and anti-HSPA12A; IgG precipitates as negative controls

binding: binds
Substance: HMG-CoA reductase degradation protein 1 (HRD1) (from UniProt Q86TM6 1-617) (enzyme)
